A short description of the data set: general procedure: Fmoc solid-phase peptide synthesis; preloaded Fmoc-L-Ala-Wang resin; preloaded Fmoc-L-Val Wang resin; DIC/HOBt. Particulars: lipidation step.

As to Pam3Cys-MUC1-Tn, the step yield was 100%. The substance Pam3Cys-MUC1 VNTR-TACA conjugate yielded a step yield of 100%.

For the origin of these results see patent publication US10206988B2 (The University of Toledo, priority 2012, dated 2019).
